Assay results taken from publication PMC3526273.
No constants are given. Whether binding was seen depends on the method and setting. Some binding calls cover weakened binding; strength is not graded here. Sequences can lack the tags named with a protein.

By UniProt entry, the sequences of proteins in these tests, tags left out. Where a name states a change or a piece, a line headed by the entry shows the natural chain unless it says otherwise.
UniProt P15873: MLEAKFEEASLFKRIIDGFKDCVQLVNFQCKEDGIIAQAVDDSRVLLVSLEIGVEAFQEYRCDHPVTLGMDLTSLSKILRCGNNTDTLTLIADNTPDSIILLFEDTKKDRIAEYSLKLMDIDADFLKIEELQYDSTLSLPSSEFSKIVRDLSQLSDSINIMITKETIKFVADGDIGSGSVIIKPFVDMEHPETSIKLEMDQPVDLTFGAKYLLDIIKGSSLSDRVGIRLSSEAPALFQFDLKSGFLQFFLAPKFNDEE

T1: GSTUbc9 (S. cerevisiae) (UniProt P50623)
T1 sequence: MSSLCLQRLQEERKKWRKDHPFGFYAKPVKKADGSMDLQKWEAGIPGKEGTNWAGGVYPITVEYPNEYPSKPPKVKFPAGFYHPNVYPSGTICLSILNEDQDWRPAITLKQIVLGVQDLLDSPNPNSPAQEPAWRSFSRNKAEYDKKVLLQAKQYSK

T2: Ubc9 (S. cerevisiae SUMO E2), two-hybrid fusion (S. cerevisiae) (UniProt P50623)
T2 sequence: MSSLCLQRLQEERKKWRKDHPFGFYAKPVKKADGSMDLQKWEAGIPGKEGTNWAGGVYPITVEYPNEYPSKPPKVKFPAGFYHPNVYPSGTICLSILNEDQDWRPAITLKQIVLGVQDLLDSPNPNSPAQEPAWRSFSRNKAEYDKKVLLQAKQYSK


Key:
GSTUbc9 (S. cerevisiae) = biological target: T1, GSTUbc9 (S. cerevisiae); assay: pull-down; GST-tagged protein immobilised on glutathione Sepharose (1 h, 4°C), binding partner added for 90 min at 4°C in phosphate-buffered saline with 0.05% Triton X-100; three washes; anti-His western blot; both purified
[1] = biological target: GSTSmt3 (S. cerevisiae) [SUMO: Q12306]; assay: as above
[2] = biological target: T2, Ubc9 (S. cerevisiae SUMO E2), two-hybrid fusion (S. cerevisiae); assay: two-hybrid; Gal4 system in reporter strain PJ69-4A; activation domain (AD) and DNA-binding domain (BD) fusions; growth on medium lacking histidine (-HLW) or, for stronger interactions, histidine and adenine (-AHLW)
[3] = biological target: Rad18 (S. cerevisiae), two-hybrid fusion (S. cerevisiae) (UniProt P10862); assay: as above
[4] = biological target: full-length Smt3 (S. cerevisiae SUMO), two-hybrid fusion (S. cerevisiae) [SUMO: Q12306]; assay: as above
[5] = biological target: PCNA(K127/164R), two-hybrid fusion (S. cerevisiae) (UniProt P15873); assay: as above
[6] = biological target: PCNA (S. cerevisiae, POL30), two-hybrid fusion (S. cerevisiae) (UniProt P15873); assay: as above

Row | binding (GSTUbc9 (S. cerevisiae)) | binding [1] | binding [2] | binding [3] | binding [4] | binding [5] | binding [6] | Binder
1 | binds weakly | binds |  |  |  |  |  | HisRad18(1-255) (domain or fragment, UniProt P10862 1-255) MDHQITTASDFTTTSIPSLYQLDTLLRCHICKDFLKVPVLTPCGHTFCSLCIRTHLNNQPNCPLCLFEFRESLLRSEFLVSEIIQSYTSLRSSLLDALRIPKPTPVPENEEVPGPENSSWIELISESESDSVNAADDDLQIVATSERKLAKRSMTDILPLSSKPSKRNFAMFRSERIKKKSKPNEQMAQCPICQQFYPLKALEKTHLDECLTLQSLGKKPKISTTFPTESNPHNKSSSRFKVRTPEVDKSSCGET
2 | binds weakly | binds weakly |  |  |  |  |  | HisRad18(1-255) SIM* (L139A, I141A, V142A) (domain or fragment, UniProt P10862 1-255) MDHQITTASDFTTTSIPSLYQLDTLLRCHICKDFLKVPVLTPCGHTFCSLCIRTHLNNQPNCPLCLFEFRESLLRSEFLVSEIIQSYTSLRSSLLDALRIPKPTPVPENEEVPGPENSSWIELISESESDSVNAADDDAQAAATSERKLAKRSMTDILPLSSKPSKRNFAMFRSERIKKKSKPNEQMAQCPICQQFYPLKALEKTHLDECLTLQSLGKKPKISTTFPTESNPHNKSSSRFKVRTPEVDKSSCGET
3 |  |  | binds | binds | binds | binds | binds | Rad18 (S. cerevisiae), two-hybrid fusion (protein, UniProt P10862 1-487) MDHQITTASDFTTTSIPSLYQLDTLLRCHICKDFLKVPVLTPCGHTFCSLCIRTHLNNQPNCPLCLFEFRESLLRSEFLVSEIIQSYTSLRSSLLDALRIPKPTPVPENEEVPGPENSSWIELISESESDSVNAADDDLQIVATSERKLAKRSMTDILPLSSKPSKRNFAMFRSERIKKKSKPNEQMAQCPICQQFYPLKALEKTHLDECLTLQSLGKKPKISTTFPTESNPHNKSSSRFKVRTPEVDKSSCGETSHVDKYLNSMMSAEHQRLPKINFTSMTQSQIKQKLSSLGLSTNGTRQNMIKRYNHYEMLWNSNFCDSLEPVDEAELKRQLLSWDVSHNKTPQNSSNKGGISKLMIMKSNGKSSSYRKLLENFKNDKFNRKGWMVMFRKDFARLIREAKMKIKTGSSDSSGSVGHSNDGDGVEKVQSDQGTEDQQMEKDQDTVINEDRVAGERNLPNEDSTDADLSRELMDLNEYSKDPPGNN
4 |  |  | binds |  | binds weakly |  | binds | Rad18(SIM*) (L139A, I141A, V142A), two-hybrid fusion (protein, UniProt P10862 1-487) MDHQITTASDFTTTSIPSLYQLDTLLRCHICKDFLKVPVLTPCGHTFCSLCIRTHLNNQPNCPLCLFEFRESLLRSEFLVSEIIQSYTSLRSSLLDALRIPKPTPVPENEEVPGPENSSWIELISESESDSVNAADDDAQAAATSERKLAKRSMTDILPLSSKPSKRNFAMFRSERIKKKSKPNEQMAQCPICQQFYPLKALEKTHLDECLTLQSLGKKPKISTTFPTESNPHNKSSSRFKVRTPEVDKSSCGETSHVDKYLNSMMSAEHQRLPKINFTSMTQSQIKQKLSSLGLSTNGTRQNMIKRYNHYEMLWNSNFCDSLEPVDEAELKRQLLSWDVSHNKTPQNSSNKGGISKLMIMKSNGKSSSYRKLLENFKNDKFNRKGWMVMFRKDFARLIREAKMKIKTGSSDSSGSVGHSNDGDGVEKVQSDQGTEDQQMEKDQDTVINEDRVAGERNLPNEDSTDADLSRELMDLNEYSKDPPGNN
